According to US20220267454A1:
These are yes or no findings as the source states them, for the method shown. Some results given as binding are weak or reduced against the parent protein; the word gives no strength.

Sequences of proteins named here, by UniProt entry; tags and fusion partners are left off. Residues count along the entry.
UniProt Q9NPH3, residues 21-367: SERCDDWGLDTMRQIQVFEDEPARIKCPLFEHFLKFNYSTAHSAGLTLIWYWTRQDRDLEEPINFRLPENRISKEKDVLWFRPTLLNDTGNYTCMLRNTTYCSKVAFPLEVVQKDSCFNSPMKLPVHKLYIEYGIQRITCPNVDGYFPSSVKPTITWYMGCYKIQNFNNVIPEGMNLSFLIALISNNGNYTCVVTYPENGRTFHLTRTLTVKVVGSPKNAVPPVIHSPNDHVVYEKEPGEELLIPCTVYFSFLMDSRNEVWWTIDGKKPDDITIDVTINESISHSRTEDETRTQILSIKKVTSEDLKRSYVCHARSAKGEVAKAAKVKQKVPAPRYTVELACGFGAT

Key:
[1] = biological target: human IL1RAP (analyte of the Biacore study) (human) (UniProt Q9NPH3); test: SPR (Biacore T200)
[2] = biological target: recombinant M. fascicularis IL1RAP (aa21-367) (Macaca fascicularis (cynomolgus)); test: ELISA on recombinant M. fascicularis IL1RAP (aa21-367)

B1: CAN03 (antibody, V domains shown)
VH: DVKLVESGGGLVKPGGSLKLSCAASGFTFSIYTMSWVRQTPEKRLEWVATISIGGSYINYPDSVKGRFTISRDNAKNTLYLQMSSLKSEDTAIYYCSREVDGSYAMDYWGQGTSVTVSS
VL: DILLTQSPAILSVSPGERVSFSCRASQSIGTSIHWYQRRTNGSPRLLIKSASESISGIPSRFSGSGSGTDFTLSINSVESEDIADYYCQQSNSWPTTFGAGTKLELKR
In the case of B1, the binding [1] is reported as “binds” and the binding [2] is reported as “binds”.
